PubChem BioAssay AID652259, Drosophila RNAi Screening Center | 2013
The screen tested about 22,000 reagents; shown is an unselected part of those that have a named target and a result. Over the whole deposit, 233 (1.1%) were called active. 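Light values are raw, unnormalised plate reads; the ratio scores behind the reporter calls were not deposited.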 Unmarked entries are inactive. No sequences are given here. Not given: the amount of reagent, the time to read-out, the dose of the treatment.

Screen: 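Genome-wide hunt for genes that control Wingless pathway activity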 (primary screen)
Cell system: Drosophila clone 8 imaginal disc epithelial cells
Reagent: long dsRNA against Drosophila genes
Challenge: pathway stimulated by co-transfected Wingless expression plasmid
Read-out: 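Firefly luciferase from a tcf-site Wingless reporter, measured alongside co-transfected Renilla luciferase that tracks transfection; pathway stimulated by a Wingless plasmid; the firefly-to-Renilla ratio is not deposited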
Reading the numbers: firefly reporter light: higher = more Wg reporter light, before normalisation; Renilla control light: higher = more transfected or surviving cells
Active means: 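a knock-down is a candidate when at least two out of four statistical tests show it departing from its plate mean; one test alone signals a weak candidate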
Meaning of the calls: active = candidate regulator (raises or lowers reporter); inactive = not a candidate

Nepl18 [DRSC14879] → firefly reporter light, replicate 1: 6179; Renilla control light, replicate 1: 4377
CG34238 [DRSC09040] → firefly reporter light, replicate 1: 3328; Renilla control light, replicate 1: 1220
CG7884 [DRSC20065] → firefly reporter light, replicate 1: 9877; Renilla control light, replicate 1: 8389
CG9759 [DRSC16558] → firefly reporter light, replicate 1: 9289; Renilla control light, replicate 1: 3225
Alg1 [DRSC15297] → firefly reporter light, replicate 1: 2486; firefly reporter light, replicate 2: 8517; Renilla control light, replicate 1: 1445; Renilla control light, replicate 2: 2221
Polr3G [DRSC21511] → firefly reporter light, replicate 1: 4.48e5; firefly reporter light, replicate 2: 5.52e5; Renilla control light, replicate 1: 2.29e5; Renilla control light, replicate 2: 1.76e5
Cpr97Eb [DRSC15123] → firefly reporter light, replicate 1: 8917; Renilla control light, replicate 1: 3555
CG9030 [DRSC20139] → firefly reporter light, replicate 1: 19546; Renilla control light, replicate 1: 9168

Targets above whose target name starts with C or c (5):
CG34238 [DRSC09040] → firefly reporter light, replicate 1: 3328; Renilla control light, replicate 1: 1220
CG7884 [DRSC20065] → firefly reporter light, replicate 1: 9877; Renilla control light, replicate 1: 8389
CG9759 [DRSC16558] → firefly reporter light, replicate 1: 9289; Renilla control light, replicate 1: 3225
Cpr97Eb [DRSC15123] → firefly reporter light, replicate 1: 8917; Renilla control light, replicate 1: 3555
CG9030 [DRSC20139] → firefly reporter light, replicate 1: 19546; Renilla control light, replicate 1: 9168

The listing continues.
MFS18 [DRSC00452] → firefly reporter light, replicate 1: 14324; Renilla control light, replicate 1: 5536
CG9328 [DRSC03203] → firefly reporter light, replicate 1: 10828; Renilla control light, replicate 1: 3635
Dcr-1 [DRSC15646] → firefly reporter light, replicate 1: 4219; firefly reporter light, replicate 2: 7734; Renilla control light, replicate 1: 1809; Renilla control light, replicate 2: 2432
Mip [DRSC10639] → firefly reporter light, replicate 1: 3848; Renilla control light, replicate 1: 837
